In publication PMC3415457, “Cohesin Rings Devoid of Scc3 and Pds5 Maintain Their Stable Association with the DNA” (PLoS Genetics, 2012):
These are yes or no findings as the source states them, for the method shown. Binding seen in cells or lysates may run through a third protein. Some entries that bind do so weakly or less than the wild type. Sequences can lack the tags named with a protein. One block for each binder: values may come before it.

Assays:
[1] = target: T1, Smc3-TAP (S. cerevisiae (budding yeast)) (UniProt P47037); experiment: co-IP; lysates of nocodazole/benomyl arrested yeast on IgG Sepharose to precipitate Scc1-TAP or Smc3-TAP; washes up to buffer I/150 mM potassium acetate; blot with anti-MYC; Scc3 tested in PDS5-degron strains, Pds5 in SCC3-degron strains
T1 sequence: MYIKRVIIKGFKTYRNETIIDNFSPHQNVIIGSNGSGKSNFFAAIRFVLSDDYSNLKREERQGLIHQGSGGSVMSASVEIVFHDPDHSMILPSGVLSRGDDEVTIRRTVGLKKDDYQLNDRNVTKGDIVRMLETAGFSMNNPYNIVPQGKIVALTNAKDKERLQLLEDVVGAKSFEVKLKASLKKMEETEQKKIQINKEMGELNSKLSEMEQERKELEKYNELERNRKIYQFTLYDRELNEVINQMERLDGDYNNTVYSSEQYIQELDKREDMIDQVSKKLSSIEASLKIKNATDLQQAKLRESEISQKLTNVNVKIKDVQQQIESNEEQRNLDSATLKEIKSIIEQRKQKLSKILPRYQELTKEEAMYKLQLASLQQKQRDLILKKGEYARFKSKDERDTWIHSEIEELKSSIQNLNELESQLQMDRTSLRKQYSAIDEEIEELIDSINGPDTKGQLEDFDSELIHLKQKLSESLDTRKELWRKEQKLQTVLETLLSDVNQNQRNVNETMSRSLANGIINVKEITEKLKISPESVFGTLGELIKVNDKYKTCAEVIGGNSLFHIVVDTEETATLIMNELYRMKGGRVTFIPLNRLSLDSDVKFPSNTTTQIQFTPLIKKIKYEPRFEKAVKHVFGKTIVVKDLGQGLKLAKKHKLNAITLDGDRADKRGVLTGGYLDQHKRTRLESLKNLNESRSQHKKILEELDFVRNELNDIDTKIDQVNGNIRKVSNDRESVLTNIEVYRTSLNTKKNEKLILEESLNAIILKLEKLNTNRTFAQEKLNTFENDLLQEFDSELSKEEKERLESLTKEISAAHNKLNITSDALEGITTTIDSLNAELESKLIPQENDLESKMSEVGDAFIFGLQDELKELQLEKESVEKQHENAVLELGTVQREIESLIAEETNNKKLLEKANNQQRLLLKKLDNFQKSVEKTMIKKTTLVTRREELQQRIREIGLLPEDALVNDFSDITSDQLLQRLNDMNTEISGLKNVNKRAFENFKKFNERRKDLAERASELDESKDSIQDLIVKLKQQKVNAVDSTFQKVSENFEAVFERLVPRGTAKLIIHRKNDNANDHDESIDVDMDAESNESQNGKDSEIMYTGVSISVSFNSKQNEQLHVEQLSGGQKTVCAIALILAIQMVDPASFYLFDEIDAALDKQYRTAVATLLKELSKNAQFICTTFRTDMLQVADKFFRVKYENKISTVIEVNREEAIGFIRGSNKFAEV

[2] = target: T2, Scc1-TAP (S. cerevisiae (budding yeast)) (UniProt Q12158); experiment: as above
T2 sequence: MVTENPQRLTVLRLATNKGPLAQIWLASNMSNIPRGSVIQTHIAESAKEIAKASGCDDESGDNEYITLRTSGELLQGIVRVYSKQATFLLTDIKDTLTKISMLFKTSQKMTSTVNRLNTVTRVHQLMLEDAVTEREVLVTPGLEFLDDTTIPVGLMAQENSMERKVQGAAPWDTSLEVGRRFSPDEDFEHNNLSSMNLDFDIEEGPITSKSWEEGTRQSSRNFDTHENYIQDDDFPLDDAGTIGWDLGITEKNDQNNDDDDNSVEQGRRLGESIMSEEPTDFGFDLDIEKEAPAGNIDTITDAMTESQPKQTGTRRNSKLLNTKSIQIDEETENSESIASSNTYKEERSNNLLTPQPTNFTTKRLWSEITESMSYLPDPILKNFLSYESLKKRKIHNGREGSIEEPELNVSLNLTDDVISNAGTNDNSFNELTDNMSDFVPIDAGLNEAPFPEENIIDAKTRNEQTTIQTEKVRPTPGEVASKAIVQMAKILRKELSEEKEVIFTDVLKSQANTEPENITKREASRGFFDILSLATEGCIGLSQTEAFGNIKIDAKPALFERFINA

[3] = target: T1, Smc3-TAP (S. cerevisiae (budding yeast)); experiment: co-IP; lysates of nocodazole/benomyl arrested yeast on IgG Sepharose to precipitate Scc1-TAP or Smc3-TAP; higher salt washes omitted (three times buffer I, two times buffer I/100 mM potassium acetate); blot with anti-MYC for Wpl1; wild type strains (less Wpl1 in SCC3-degron strains)
[4] = target: T2, Scc1-TAP (S. cerevisiae (budding yeast)); experiment: as above
[5] = target: T1, Smc3-TAP (S. cerevisiae (budding yeast)); experiment: co-IP; as for Wpl1 in the wild type (higher salt washes omitted), but PDS5-HA6-degron strains depleted of Pds5
[6] = target: T2, Scc1-TAP (S. cerevisiae (budding yeast)); experiment: as above

binding [1]: binds
binding [2]: binds
B1: Pds5-MYC18 (protein, UniProt Q04264 1-1277)
chain: MAKGAVTKLKFNSPIISTSDQLISTNELLDRLKALHEELASLDQDNTDLTGLDKYRDALVSRKLLKHKDVGIRAFTACCLSDILRLYAPDAPYTDAQLTDIFKLVLSQFEQLGDQENGYHIQQTYLITKLLEYRSIVLLADLPSSNNLLIELFHIFYDPNKSFPARLFNVIGGILGEVISEFDSVPLEVLRLIFNKFLTYNPNEIPEGLNVTSDCGYEVSLILCDTYSNRMSRHLTKYYSEIIHEATNDDNNSRLLTVVVKLHKLVLRLWETVPELINAVIGFIYHELSSENELFRKEATKLIGQILTSYSDLNFVSTHSDTFKAWISKIADISPDVRVEWTESIPQIIATREDISKELNQALAKTFIDSDPRVRRTSVMIFNKVPVTEIWKNITNKAIYTSLLHLAREKHKEVRELCINTMAKFYSNSLNEIERTYQNKEIWEIIDTIPSTLYNLYYINDLNINEQVDSVIFEYLLPFEPDNDKRVHRLLTVLSHFDKKAFTSFFAFNARQIKISFAISKYIDFSKFLNNQESMSSSQGPIVMNKYNQTLQWLASGLSDSTKAIDALETIKQFNDERIFYLLNACVTNDIPFLTFKNCYNELVSKLQTPGLFKKYNISTGASIMPRDIAKVIQILLFRASPIIYNVSNISVLLNLSNNSDAKQLDLKRRILDDISKVNPTLFKDQIRTLKTIIKDLDDPDAEKNDNLSLEEALKTLYKASKTLKDQVDFDDTFFFTKLYDFAVESKPEITKYATKLIALSPKAEETLKKIKIRILPLDLQKDKYFTSHIIVLMEIFKKFPHVLNDDSTDIISYLIKEVLLSNQVVGDSKKEIDWVEDSLLSDTKYSAIGNKVFTLKLFTNKLRSIAPDVPRDELAESFTEKTMKLFFYLIASGGELISEFNKEFYPTPSNYQTKLRCVAGIQVLKLARISNLNNFIKPSDIIKLINLVEDESLPVRKTFLEQLKDYVANELISIKFLPLVFFTAYEPDVELKTTTKIWINFTFGLKSFKKGTIFERALPRLIHAIAHHPDIVGGLDSEGDAYLNALTTAIDYLLFYFDSIAAQENFSLLYYLSERVKNYQDKLVEDEIDEEEGPQKEEAPKKHRPYGQKMYIIGELSQMILLNLKEKKNWQHSAYPGKLNLPSDLFKPFATVQEAQLSFKTYIPESLTEKIQNNIKAKIGRILHTSQTQRQRLQKRLLAHENNESQKKKKKVHHARSQADDEEGDGDRESDSDDDSYSPSNKNETKKGHENIVMKKLRVRKEVDYKDDEDDDIEMT

binding [1]: binds
binding [2]: binds
B2: Scc3-MYC18 (protein, UniProt P40541 1-1150)
chain: MTAVRRSTRIRTKSQVIEEDYDDEQNTSAQHVESDKITAKTQHEEEEEQDTGESEESSSEDDYEDQDDDDYVDTATAKRKSRKRKPKSASNTSSKRQKKKPTSAQKSAVSHAPAYHRSKKDQDQYLEIAKDFQPTELFDILSTSEDVSIEELLREWLETYSENRDKFLQEFINLLLNCCGSVARVEDHDVHSNESSNETIGEIQLLFQRQKLHEFYLLISKENKKRKNFKMGPLYQNFAEFMTKLLEVANDLQLLYVESDEDDTQIVTGNLVLDLLTWLSSFSVCKIRCFRYISTLTLYLFQDYLTQQAVNLEKNYLAKLSKQLSLEEKKKRPNNKTLEKLESTIAETQGSKVVIDSIIDNIVKLCFVHRYKDVSDLIRSESMLHLSIWIKNYPEYFLKVTFLKYFGWLLSDNSVSVRLQVTKILPHLIIQNHNSKSTDNSAIRQVFERFKTKILEVAIRDVNLDVRIHSIQVLTEASSLGYLDDSEILIISSLMFDEEFDPFKTSSFNKRSKFLSTVAKFLARVIKEKFDEFIKTHEDLPKEVDGLEVGPVVQVGIFIKILNDSLIYHLKDCAEVDSRTKIRMLTQAAEFLSPYISTHLKTICNLLISDTESNELIQKLQNSANNNSDDEDVDDEELDITPLFPIDRNSTILYLNVFHGLCAGANNPKIQTKDSVKEIVLPLFYDLLNAASIESADILCPLLESFITFSLDDWISIGYETELKKITDKTIKAFMDSTIGNSKVDMKYDIFAKFIHHIHHFEKKELQEKFLNQIATLKIHLKKFLQEKMDPNNSRDDYKDLTCSLYELYINKLTILGRDYPIEVDEELLQLFLNNFVSRIPIMFQDFDDSTAQEINFKMLVLLATWNLEKWREIIEKVRDYENSISKDLRSVWKPIAAIIGRLNTLVISLAATNETFENINSLFYLKWSACTSLMDIIVAIKIFELKLPADATTWRYSMSEQFPFYLHDNASKVLLKIFLYLESLFAKQVDVQLERVADEDANLNDLPETGFFENIETEFLLFTVKLKGLMKLNILDERFASRVALNKEKLGPLFKKIVDDTIMENPEPNKKNIQKAKSNQTQREKAPLQPNSERETDHANTENNDPDIPMTIDLEPIEESSQNNSELAPIEEHPTVVDAIDNSDEITQD

binding [3]: binds
binding [4]: binds
binding [5]: binds weakly
binding [6]: binds weakly
B3: Wpl1-MYC18 (protein, UniProt Q99359 1-647)
chain: MRAYGKRGPVLRTPFRSNKGLPSSSDVEFSDDDVNSVIPDVSSTISSSIADHPIEGLLDEPRKAQDSSSSFDGANEKPSSQLDSKRNDQNVKIITSSDTSMAFMKDEKLSAFNFLDGSKASKRKRRRTYQKHDANITSSIEPDVQDEDSITMHNEFESIRKIYNDINEFILKLPRADDDILNKMLENEMKMDDSIENNSIRTSKDKKYGKFRTILINKNKENEIMGEEVDQKANTLSLNNADNSNAEKEGLTSTNHYNELKNMGDTIKYQDDIEFLLSNSKSNDNTTVPINEYFKKLLNLSLMIINDEEFFQYAKRYFKKEIIKLSFAQFRSDFPELILLQGYLLHKVSESQSDFPPSFDNFSIELSKDDGKIRTKKNKHIKKLSHLNFEDFLRKTQFKTGLYYSLSLWEMHGNLSLDIIKRISILASNKDLFSRHVKTFIPLLEKLITASEFCHMYIEQPEMFDSLISNLNNQFKDMLDDDSLIKILILLTNMEVHNYTLWKEADMIFQSSMNTILESIHPLTDAKVDNILLHLGLCLNICSRENSRLKLDGKLWYDMKTIFVKMIRDGSDTENRLVQGLFYLNFSFLIKQRKENSNLDPGELNLLLVELEAFKSETSQFNEGISNKIEIALNYLKSIYTSERITI
